Binding data for five molecules are collected here from publication PMC5847545.

Amino acid sequences for entries named in this document (tags omitted).
UniProt Q9ULW0: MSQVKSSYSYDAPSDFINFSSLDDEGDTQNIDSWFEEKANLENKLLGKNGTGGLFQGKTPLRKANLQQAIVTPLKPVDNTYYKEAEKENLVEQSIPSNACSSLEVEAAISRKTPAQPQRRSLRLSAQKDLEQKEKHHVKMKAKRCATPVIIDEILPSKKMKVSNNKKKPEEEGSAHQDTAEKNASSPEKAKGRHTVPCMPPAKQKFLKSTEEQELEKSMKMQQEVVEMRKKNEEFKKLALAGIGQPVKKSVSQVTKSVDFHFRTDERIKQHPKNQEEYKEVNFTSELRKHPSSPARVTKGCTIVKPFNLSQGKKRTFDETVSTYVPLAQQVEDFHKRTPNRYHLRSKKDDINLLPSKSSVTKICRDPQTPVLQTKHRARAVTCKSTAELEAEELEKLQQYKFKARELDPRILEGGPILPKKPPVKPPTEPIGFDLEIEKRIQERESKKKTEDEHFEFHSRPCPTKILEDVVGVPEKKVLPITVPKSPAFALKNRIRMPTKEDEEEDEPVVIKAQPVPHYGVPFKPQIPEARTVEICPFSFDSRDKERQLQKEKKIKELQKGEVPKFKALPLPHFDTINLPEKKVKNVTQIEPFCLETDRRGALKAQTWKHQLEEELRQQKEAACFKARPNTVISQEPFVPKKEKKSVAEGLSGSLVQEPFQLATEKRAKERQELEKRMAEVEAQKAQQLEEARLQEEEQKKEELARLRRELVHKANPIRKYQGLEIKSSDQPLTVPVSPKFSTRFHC
UniProt Q92793: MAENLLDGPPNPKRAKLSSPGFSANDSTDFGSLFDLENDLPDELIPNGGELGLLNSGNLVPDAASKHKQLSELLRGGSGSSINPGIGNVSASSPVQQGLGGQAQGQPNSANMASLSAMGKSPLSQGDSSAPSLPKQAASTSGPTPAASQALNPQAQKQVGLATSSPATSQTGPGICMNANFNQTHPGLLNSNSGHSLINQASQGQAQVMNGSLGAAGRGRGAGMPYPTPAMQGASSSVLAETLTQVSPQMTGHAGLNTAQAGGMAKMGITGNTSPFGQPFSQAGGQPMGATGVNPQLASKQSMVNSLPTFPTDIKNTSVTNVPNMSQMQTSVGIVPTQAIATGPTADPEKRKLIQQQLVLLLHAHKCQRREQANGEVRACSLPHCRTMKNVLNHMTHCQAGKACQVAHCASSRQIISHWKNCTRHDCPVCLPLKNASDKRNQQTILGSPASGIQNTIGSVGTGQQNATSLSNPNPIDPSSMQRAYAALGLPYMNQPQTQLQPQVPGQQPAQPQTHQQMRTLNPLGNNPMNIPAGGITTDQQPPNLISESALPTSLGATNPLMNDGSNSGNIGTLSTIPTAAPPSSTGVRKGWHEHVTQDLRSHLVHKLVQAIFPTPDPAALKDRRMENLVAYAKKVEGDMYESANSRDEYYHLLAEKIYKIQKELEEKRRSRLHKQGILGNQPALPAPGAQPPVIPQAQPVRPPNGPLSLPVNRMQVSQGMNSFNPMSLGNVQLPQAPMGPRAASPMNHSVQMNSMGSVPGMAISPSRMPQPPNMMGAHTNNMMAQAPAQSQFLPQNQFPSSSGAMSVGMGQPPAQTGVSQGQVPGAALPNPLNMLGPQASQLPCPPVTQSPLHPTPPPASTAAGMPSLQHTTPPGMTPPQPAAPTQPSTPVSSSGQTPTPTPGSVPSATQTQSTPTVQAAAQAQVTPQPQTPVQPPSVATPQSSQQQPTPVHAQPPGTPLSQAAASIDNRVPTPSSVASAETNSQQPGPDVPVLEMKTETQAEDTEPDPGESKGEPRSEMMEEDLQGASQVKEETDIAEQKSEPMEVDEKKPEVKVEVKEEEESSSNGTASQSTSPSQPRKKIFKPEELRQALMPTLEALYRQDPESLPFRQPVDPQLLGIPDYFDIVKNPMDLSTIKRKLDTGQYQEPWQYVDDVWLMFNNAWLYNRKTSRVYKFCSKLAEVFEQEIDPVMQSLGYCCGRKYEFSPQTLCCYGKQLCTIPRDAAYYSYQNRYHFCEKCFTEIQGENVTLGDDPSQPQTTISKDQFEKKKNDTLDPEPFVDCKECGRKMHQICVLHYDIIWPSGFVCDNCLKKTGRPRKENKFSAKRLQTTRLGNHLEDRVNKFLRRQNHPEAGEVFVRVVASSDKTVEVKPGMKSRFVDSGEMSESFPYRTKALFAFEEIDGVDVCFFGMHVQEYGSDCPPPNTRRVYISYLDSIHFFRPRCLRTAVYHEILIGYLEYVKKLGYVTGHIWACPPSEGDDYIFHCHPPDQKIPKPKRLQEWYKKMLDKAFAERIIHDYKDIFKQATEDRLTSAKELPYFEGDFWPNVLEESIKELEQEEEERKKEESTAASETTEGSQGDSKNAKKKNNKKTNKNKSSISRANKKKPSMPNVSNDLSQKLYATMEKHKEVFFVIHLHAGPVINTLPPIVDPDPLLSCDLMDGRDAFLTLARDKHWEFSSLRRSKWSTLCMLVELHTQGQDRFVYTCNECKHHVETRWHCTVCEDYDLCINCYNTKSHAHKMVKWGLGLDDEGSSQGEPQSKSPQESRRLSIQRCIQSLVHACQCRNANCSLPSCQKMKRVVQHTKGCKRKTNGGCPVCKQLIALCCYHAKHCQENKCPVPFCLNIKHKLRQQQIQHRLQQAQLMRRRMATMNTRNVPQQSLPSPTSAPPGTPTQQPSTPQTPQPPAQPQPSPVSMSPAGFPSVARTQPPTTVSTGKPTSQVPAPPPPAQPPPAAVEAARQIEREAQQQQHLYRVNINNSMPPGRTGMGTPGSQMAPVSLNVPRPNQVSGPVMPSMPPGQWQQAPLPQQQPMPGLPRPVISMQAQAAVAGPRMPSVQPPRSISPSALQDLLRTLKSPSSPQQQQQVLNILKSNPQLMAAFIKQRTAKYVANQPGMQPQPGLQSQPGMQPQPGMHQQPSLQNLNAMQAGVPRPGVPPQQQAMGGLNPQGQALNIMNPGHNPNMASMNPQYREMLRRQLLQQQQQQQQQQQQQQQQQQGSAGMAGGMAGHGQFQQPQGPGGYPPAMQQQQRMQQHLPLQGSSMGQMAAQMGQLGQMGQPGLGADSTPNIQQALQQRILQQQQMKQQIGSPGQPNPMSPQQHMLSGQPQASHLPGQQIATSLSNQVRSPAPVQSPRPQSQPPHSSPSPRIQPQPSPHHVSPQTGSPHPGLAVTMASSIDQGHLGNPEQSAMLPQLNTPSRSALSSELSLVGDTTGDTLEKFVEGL
UniProt P45481: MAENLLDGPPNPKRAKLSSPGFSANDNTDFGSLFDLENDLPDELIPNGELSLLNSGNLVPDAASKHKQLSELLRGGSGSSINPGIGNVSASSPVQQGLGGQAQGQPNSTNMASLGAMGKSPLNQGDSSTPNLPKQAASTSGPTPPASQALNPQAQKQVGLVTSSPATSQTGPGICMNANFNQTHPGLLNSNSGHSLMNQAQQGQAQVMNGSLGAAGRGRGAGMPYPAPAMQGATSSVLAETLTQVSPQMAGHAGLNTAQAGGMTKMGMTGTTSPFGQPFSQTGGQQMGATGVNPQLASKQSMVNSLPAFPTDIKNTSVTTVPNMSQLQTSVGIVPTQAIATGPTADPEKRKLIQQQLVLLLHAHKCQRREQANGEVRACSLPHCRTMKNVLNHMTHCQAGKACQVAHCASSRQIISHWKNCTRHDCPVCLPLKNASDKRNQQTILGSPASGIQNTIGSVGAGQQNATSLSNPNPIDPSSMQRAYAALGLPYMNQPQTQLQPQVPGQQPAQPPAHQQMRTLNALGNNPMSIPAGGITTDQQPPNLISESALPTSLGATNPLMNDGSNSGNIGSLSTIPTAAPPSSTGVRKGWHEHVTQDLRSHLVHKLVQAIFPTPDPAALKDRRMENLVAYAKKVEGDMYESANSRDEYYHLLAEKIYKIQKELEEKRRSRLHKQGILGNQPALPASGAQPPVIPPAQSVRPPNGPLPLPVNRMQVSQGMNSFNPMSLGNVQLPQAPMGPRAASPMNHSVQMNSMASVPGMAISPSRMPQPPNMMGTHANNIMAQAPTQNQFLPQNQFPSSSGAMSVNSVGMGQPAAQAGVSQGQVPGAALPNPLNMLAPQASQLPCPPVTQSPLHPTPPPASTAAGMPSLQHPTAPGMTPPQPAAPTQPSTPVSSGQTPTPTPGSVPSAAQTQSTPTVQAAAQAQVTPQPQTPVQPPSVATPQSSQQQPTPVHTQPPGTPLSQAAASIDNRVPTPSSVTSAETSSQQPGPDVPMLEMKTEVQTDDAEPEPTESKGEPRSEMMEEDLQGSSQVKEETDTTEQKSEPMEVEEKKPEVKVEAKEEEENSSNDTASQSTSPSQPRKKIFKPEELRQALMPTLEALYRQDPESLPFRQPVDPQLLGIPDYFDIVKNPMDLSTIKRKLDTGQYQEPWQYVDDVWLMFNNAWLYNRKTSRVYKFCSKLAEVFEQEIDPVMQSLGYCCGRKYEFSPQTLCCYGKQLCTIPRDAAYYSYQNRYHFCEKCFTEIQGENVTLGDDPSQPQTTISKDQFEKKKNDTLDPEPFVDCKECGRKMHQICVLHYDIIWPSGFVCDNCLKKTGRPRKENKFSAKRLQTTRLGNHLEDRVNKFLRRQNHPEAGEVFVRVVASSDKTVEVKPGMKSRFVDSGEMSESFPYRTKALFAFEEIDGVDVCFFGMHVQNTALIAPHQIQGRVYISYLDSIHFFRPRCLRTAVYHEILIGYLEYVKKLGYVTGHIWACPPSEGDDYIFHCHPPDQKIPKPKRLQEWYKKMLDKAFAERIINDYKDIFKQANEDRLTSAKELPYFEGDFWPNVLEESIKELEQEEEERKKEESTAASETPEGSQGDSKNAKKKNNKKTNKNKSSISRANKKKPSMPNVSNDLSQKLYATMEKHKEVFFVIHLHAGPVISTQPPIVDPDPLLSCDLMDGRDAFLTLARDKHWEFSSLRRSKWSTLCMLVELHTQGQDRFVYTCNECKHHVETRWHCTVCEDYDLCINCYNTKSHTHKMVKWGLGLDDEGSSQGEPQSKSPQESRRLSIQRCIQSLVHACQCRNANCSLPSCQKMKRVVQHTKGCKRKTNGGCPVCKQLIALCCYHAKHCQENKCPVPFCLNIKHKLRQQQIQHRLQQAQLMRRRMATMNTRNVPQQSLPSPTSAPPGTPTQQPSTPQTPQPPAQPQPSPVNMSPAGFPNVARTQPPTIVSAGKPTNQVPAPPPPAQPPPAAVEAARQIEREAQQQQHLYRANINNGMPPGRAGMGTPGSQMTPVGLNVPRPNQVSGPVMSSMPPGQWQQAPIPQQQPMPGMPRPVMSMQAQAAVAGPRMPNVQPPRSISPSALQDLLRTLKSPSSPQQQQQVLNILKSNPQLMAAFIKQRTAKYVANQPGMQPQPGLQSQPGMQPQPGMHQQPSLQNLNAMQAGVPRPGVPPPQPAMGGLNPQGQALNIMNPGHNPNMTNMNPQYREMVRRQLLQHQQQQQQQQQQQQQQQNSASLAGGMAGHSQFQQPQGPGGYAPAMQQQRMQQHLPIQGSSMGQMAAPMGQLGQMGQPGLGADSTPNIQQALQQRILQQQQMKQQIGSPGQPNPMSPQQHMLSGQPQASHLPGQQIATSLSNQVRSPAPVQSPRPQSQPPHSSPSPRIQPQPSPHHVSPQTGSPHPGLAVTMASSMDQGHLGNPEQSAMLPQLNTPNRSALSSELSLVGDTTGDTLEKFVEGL

Results are given in words; binding and its absence hold for the method and conditions named. Binding seen in cells or lysates may run through a third protein. Some binding calls cover weakened binding; strength is not graded here. For some of these results: Where a sequence is shown, tags or fusion partners need not be part of it.

Assay [1] concerns the target T1, Coenzyme A synthase (COASY), endogenous (human (endogenous in A549 and HEK-293T)) (UniProt Q13057).
T1 sequence: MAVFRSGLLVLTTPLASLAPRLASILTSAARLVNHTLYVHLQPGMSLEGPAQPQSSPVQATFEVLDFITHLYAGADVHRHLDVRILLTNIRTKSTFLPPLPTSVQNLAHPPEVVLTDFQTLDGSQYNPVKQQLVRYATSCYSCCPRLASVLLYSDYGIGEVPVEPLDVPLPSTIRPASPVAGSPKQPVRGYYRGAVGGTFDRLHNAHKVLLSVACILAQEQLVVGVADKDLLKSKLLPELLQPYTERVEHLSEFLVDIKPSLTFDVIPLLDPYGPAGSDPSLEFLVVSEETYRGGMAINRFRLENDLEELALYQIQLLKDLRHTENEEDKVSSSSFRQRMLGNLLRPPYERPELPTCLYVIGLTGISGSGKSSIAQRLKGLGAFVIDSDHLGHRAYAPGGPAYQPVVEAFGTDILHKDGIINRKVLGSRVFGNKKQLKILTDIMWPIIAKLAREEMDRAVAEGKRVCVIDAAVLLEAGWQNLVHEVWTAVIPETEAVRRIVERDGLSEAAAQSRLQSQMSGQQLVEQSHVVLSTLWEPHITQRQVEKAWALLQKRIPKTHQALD
Briefly: co-IP; mitotically synchronized HEK-293T cells; endogenous COASY immunoprecipitated, TPX2 and CBP detected (Supplementary Fig. 5b).

Assay [2] has as its target Targeting Protein for Xklp2 (TPX2), endogenous (human (endogenous in A549 and HEK-293T)) (UniProt Q9ULW0). Briefly: co-IP; endogenous TPX2 pulled down with TPX2 antibody, endogenous CBP detected; with and without COASY knockdown; cell line not stated; NP-40 lysate.
Assay [3] concerns the target V5-tagged TPX2 (UniProt Q9ULW0). The experiment in a line: co-IP; as the V5-TPX2 / HA-CBP co-immunoprecipitation, repeated in MDA-MB-231 cells (Supplementary Fig. 4d).
Assay [4] has the same target. The experiment in a line: co-IP; HEK-293T cotransfected with V5-TPX2 and HA-CBP (wild type or catalytic-deficient); 20 min after release from thymidine-nocodazole block; IP with V5 antibody or control IgG, blot for HA.
The target in assay [5] is CREB-binding protein (CBP), endogenous (human (endogenous in A549 and HEK-293T)) (UniProt Q92793). The experiment in a line: co-IP; as the endogenous CBP immunoprecipitation from A549 cells, at 80 min after release from thymidine-nocodazole block.
For assay [6] the target is unchanged. Briefly: co-IP; A549 cells synchronized by thymidine-nocodazole block and released for the indicated times; endogenous CBP immunoprecipitated with CBP antibody, blot for TPX2 and COASY.
For the next assay, the target named is FLAG-CBP-HA, wild type (UniProt P45481). The experiment in a line: co-IP; HEK-293T cotransfected with V5-tagged COASY domains and CBP cDNA, enriched in mitosis by nocodazole; HA-CBP immunoprecipitated, blot with V5 antibody.

With “CREB-binding protein (CBP), endogenous (from UniProt Q92793 1-2442)”, the binding entry in assay [1] and in assay [2] was “binds” each time.

For the molecule “FLAG-CBP-HA, wild type (from UniProt P45481 1-2441)”, the binding entry with V5-tagged TPX2 [3] and with V5-tagged TPX2 [4] was “binds” each time.

Consider “Targeting Protein for Xklp2 (TPX2), endogenous (from UniProt Q9ULW0 1-747)”, for which the binding entry in assay [5] is given as “binds weakly”; in assay [1], “binds”; in assay [6] it was “binds”.

B1: Coenzyme A synthase (COASY), endogenous (protein, UniProt Q13057 1-564)
chain: MAVFRSGLLVLTTPLASLAPRLASILTSAARLVNHTLYVHLQPGMSLEGPAQPQSSPVQATFEVLDFITHLYAGADVHRHLDVRILLTNIRTKSTFLPPLPTSVQNLAHPPEVVLTDFQTLDGSQYNPVKQQLVRYATSCYSCCPRLASVLLYSDYGIGEVPVEPLDVPLPSTIRPASPVAGSPKQPVRGYYRGAVGGTFDRLHNAHKVLLSVACILAQEQLVVGVADKDLLKSKLLPELLQPYTERVEHLSEFLVDIKPSLTFDVIPLLDPYGPAGSDPSLEFLVVSEETYRGGMAINRFRLENDLEELALYQIQLLKDLRHTENEEDKVSSSSFRQRMLGNLLRPPYERPELPTCLYVIGLTGISGSGKSSIAQRLKGLGAFVIDSDHLGHRAYAPGGPAYQPVVEAFGTDILHKDGIINRKVLGSRVFGNKKQLKILTDIMWPIIAKLAREEMDRAVAEGKRVCVIDAAVLLEAGWQNLVHEVWTAVIPETEAVRRIVERDGLSEAAAQSRLQSQMSGQQLVEQSHVVLSTLWEPHITQRQVEKAWALLQKRIPKTHQALD
Take B1: the binding entry in assay [5] is recorded as “binds weakly”; in assay [6], “binds”.

B2: V5-PPAT domain of COASY (180-350) (domain or fragment, UniProt Q13057 180-350)
chain: VAGSPKQPVRGYYRGAVGGTFDRLHNAHKVLLSVACILAQEQLVVGVADKDLLKSKLLPELLQPYTERVEHLSEFLVDIKPSLTFDVIPLLDPYGPAGSDPSLEFLVVSEETYRGGMAINRFRLENDLEELALYQIQLLKDLRHTENEEDKVSSSSFRQRMLGNLLRPPYE
On to B2, for which the binding entry with FLAG-CBP-HA, wild type is recorded as “binds”.
